Test: general procedure: solution-phase peptide synthesis; BOP-Cl / DIEA
Details: for step yield: late stage modification step

Substance: Cyclo(-N-methyl-L-alanyl-D-lactyl-N-methyl-L-isoleucyl-D-4-(2-hydroxyethyl-sulphonyl-ethylamino-phenyl)lactyl-N-methyl-L-isoleucyl-D-lactyl-)
- step yield: 24.8% of theory

Substance: Cyclo(-N-methyl-L-alanyl-D-lactyl-N-methyl-L-isoleucyl-D-4-morpholino-phenyllactyl-N-methyl-L-isoleucyl-D-lactyl-)
- step yield: 27.7% of theory

Substance: Cyclo(-N-methyl-L-alanyl-D-lactyl-N-methyl-L-isoleucyl-D-phenyllactyl-N-methyl-L-isoleucyl-D-lactyl-)
- cyclisation yield (cyclisation step, on linear precursor): 64.7% of theory

Source: patent US7645738B2 (Bayer Animal Health GmbH, priority 2003, dated 2010)
